“And” between values parts separate entries of the source, which are not always exact repeats. Equal entries are not always repeated. Some of the results follow. Entries with a potency or affinity are not part of this list. Where no call is shown, the source marks the result inconclusive.
Assay: PubChem AID 1597
Settings: Drosophila SCA1 polyglutamine model, at 1 µM, stronger effect = higher value

Question: With `Oc1c(Cl)cc(Cl)c2cccnc12` as the molecule, how does the suppression of toxicity read?
Answer: Its suppression of toxicity is 5.71.

Question: For `CC(C)=CCc1c2c(c3occ(-c4ccc(O)c(O)c4)c(=O)c3c1O)C=CC(C)(C)O2`, which suppression of toxicity is on record?
Answer: Its suppression of toxicity is 0.

Question: Which suppression of toxicity does the source give for `CCCCCCCCCCCCCCCCCCOCC(O)CO` (stereo not given) here?
Answer: Its suppression of toxicity is 0.

Question: Which suppression of toxicity does the source give for `Cc1ccc(S(=O)(=O)NC(=O)NN2CCCCCC2)cc1` here?
Answer: The suppression of toxicity was 11.5.

Question: With `OCc1cc2c(cn1)[nH]c1ccccc12` as the molecule, how does the suppression of toxicity read?
Answer: The suppression of toxicity was 2.86.

Question: For `COC(=O)[C@H]1[C@H]2C[C@H]3c4[nH]c5cc(OC)ccc5c4CCN3C[C@H]2C[C@@H](OC(=O)c2cc(OC)c(OC)c(OC)c2)[C@@H]1OC`, which suppression of toxicity is on record?
Answer: Its suppression of toxicity is 5.71.

Question: With `Oc1c(I)cc(I)c2cccnc12` as the molecule, how does the suppression of toxicity read?
Answer: Its suppression of toxicity is 5.

Question: With `NCCCCCCNS(=O)(=O)c1cccc2c(Cl)cccc12` as the molecule, how does the suppression of toxicity read?
Answer: The suppression of toxicity was 0.715 and 10.7.

Question: For `CO[C@H]1/C=C/O[C@@]2(C)Oc3c(C)c(O)c4c(O)c(c(C=NN5CCN(C)CC5)c(O)c4c3C2=O)NC(=O)/C(C)=C\C=C\C(C)[C@H](O)[C@@H](C)[C@@H](O)[C@@H](C)[C@@H](OC(C)=O)[C@@H]1C` (stereo not given in full), which suppression of toxicity is on record?
Answer: The suppression of toxicity was 0.715.

Question: For `COc1cc(NS(=O)(=O)c2ccc(N)cc2)nc(OC)n1`, which suppression of toxicity is on record?
Answer: Its suppression of toxicity is 0.715.

Question: For `CCN(CC)CCNC(=O)COc1ccc(OC)cc1`, which suppression of toxicity is on record?
Answer: Its suppression of toxicity is 10.

Question: Which suppression of toxicity does the source give for `CCC(C)C(N)C(=O)N1CCCC1C(=O)NC(C(=O)O)C(C)CC` (stereo not given) here?
Answer: The suppression of toxicity was 15.7.

Question: Which suppression of toxicity does the source give for `CCCCNc1ccc(C(=O)OCCN(C)C)cc1` here?
Answer: The suppression of toxicity was 2.15.

Question: Which suppression of toxicity does the source give for `COc1cc(CNC(=O)CCCC/C=C/C(C)C)ccc1O` here?
Answer: Its suppression of toxicity is 12.9.

Question: With `O=C(O)c1ccccc1OP(=O)(O)O` as the molecule, how does the suppression of toxicity read?
Answer: Its suppression of toxicity is 2.15.

Question: Which suppression of toxicity does the source give for `NC(=O)N1c2ccccc2C=Cc2ccccc21` here?
Answer: The suppression of toxicity was 9.29.

Question: For `CC(=O)OCC(=O)[C@@]1(O)CCC2C3CCC4=CC(=O)C=CC4(C)C3[C@@H](O)C[C@@]21C` (stereo not given in full), which suppression of toxicity is on record?
Answer: The suppression of toxicity was 0.715.

Question: For `Cc1c(NC(C)C)c(=O)n(-c2ccccc2)n1C`, which suppression of toxicity is on record?
Answer: The suppression of toxicity was 10.7.

Question: For `CCCCC[C@H](CC(=O)NO)C(=O)N[C@H](C(=O)N1CCC[C@H]1CO)C(C)C`, which suppression of toxicity is on record?
Answer: The suppression of toxicity was 0.715.

Question: Which suppression of toxicity does the source give for `C[C@H](CS)C(=O)N1CCC[C@H]1C(=O)O` here?
Answer: Its suppression of toxicity is 8.57.

Question: With `CCOc1ccccc1OCC1CNCCO1` (stereo not given) as the molecule, how does the suppression of toxicity read?
Answer: Its suppression of toxicity is 0.715.

Question: With `CCCCC1(COC(=O)CCC(=O)O)C(=O)N(c2ccccc2)N(c2ccccc2)C1=O` as the molecule, how does the suppression of toxicity read?
Answer: The suppression of toxicity was 20.7.

Question: For `CC(Cc1ccc(O)c(O)c1)(NN)C(=O)O` (stereo not given), which suppression of toxicity is on record?
Answer: The suppression of toxicity was 2.86.

Question: Which suppression of toxicity does the source give for `COc1cc2ccc(=O)oc2cc1O` here?
Answer: Its suppression of toxicity is 0.

Question: Which suppression of toxicity does the source give for `CC[C@H](C)C(=O)O[C@H]1CCC=C2C=C[C@H](C)C(CCC3C[C@@H](O)CC(=O)O3)[C@H]21` (stereo not given in full) here?
Answer: Its suppression of toxicity is 4.29.

Question: For `CCC(Cc1c(I)cc(I)c(N)c1I)C(=O)O` (stereo not given), which suppression of toxicity is on record?
Answer: The suppression of toxicity was 0.

Question: With `CCC(=O)OCC(=O)C1(OC(=O)CC)C(C)CC2C3CCC4=CC(=O)C=CC4(C)C3(Cl)C(O)CC21C` (stereo not given) as the molecule, how does the suppression of toxicity read?
Answer: Its suppression of toxicity is 2.15.

Question: With `COc1ccc(C2Sc3ccccc3N(CCN(C)C)C(=O)C2OC(C)=O)cc1` (stereo not given) as the molecule, how does the suppression of toxicity read?
Answer: Its suppression of toxicity is 7.86.

Question: For `C#C[C@]1(O)CCC2C3CCC4=C(CCC(=O)C4)C3CC[C@@]21C` (stereo not given in full), which suppression of toxicity is on record?
Answer: The suppression of toxicity was 7.14.

Question: With `CC1(C)S[C@@H]2[C@H](NC(=O)Cc3ccccc3)C(=O)N2[C@H]1C(=O)O` as the molecule, how does the suppression of toxicity read?
Answer: Its suppression of toxicity is 5.71.

Question: Which suppression of toxicity does the source give for `CO[C@@]1(NC(=O)C(C(=O)O)c2ccc(O)cc2)C(=O)N2C(C(=O)O)=C(CSc3nnnn3C)CO[C@@H]21` (stereo not given in full) here?
Answer: The suppression of toxicity was 0.715.

Question: For `CC(CN1c2ccccc2Sc2ccccc21)N(C)C` (stereo not given), which suppression of toxicity is on record?
Answer: Its suppression of toxicity is 7.14.

Question: For `Cc1c(N(C)CS(=O)(=O)O)c(=O)n(-c2ccccc2)n1C`, which suppression of toxicity is on record?
Answer: Its suppression of toxicity is 2.86.

Question: With `Cc1cc(-c2ccccc2)nnc1NCCN1CCOCC1` as the molecule, how does the suppression of toxicity read?
Answer: Its suppression of toxicity is 12.1.

Question: For `CCC(=O)O[C@@H](O[P@](=O)(CCCCc1ccccc1)CC(=O)N1C[C@H](C2CCCCC2)C[C@H]1C(=O)O)C(C)C`, which suppression of toxicity is on record?
Answer: Its suppression of toxicity is 1.43.

Question: For `CC(=O)N[C@@H]1[C@@H](O)[C@H](O)[C@@H](CO)O[C@H]1O`, which suppression of toxicity is on record?
Answer: Its suppression of toxicity is 4.29.

Question: Which suppression of toxicity does the source give for `NCCCCC(N)C(=O)NCC(=O)NC(Cc1cnc[nH]1)C(=O)NC(CCCCN)C(=O)O` (stereo not given) here?
Answer: The suppression of toxicity was 0.

Question: Which suppression of toxicity does the source give for `CSCCC(NC=O)C(=O)NC(CC(C)C)C(=O)NC(Cc1ccccc1)C(=O)O` (stereo not given) here?
Answer: The suppression of toxicity was 0.

Question: For `O=C(O)c1cc(O)ccc1O`, which suppression of toxicity is on record?
Answer: The suppression of toxicity was 2.15.

Question: With `Oc1c(Cl)cc(Cl)c(Cl)c1Cc1c(O)c(Cl)cc(Cl)c1Cl` as the molecule, how does the suppression of toxicity read?
Answer: The suppression of toxicity was 3.57.
